Assays:
[1] = system: human precision cut liver slices (PCLS); test: PCLS RNA-Seq, Nonstimulation Protocol: Non-stimulated+CRV vs Non-stimulated+Vehicle; type: cell-based; conditions: overlap of all three donors
Description: (§1) PCLS were obtained from 5 human donors who underwent resection of liver cancer. Replicate slices were collected from healthy margins of the resections and cultured for 4 or 6 days depending on the experimental protocol. In the Nonstimulation Protocol slices were cultured for 6 days and treated for the entire period with DMSO vehicle or 5 μM CRV431. In the Stimulation Protocol slices were rested for 1 day and then administered the cytokines, TGFβ and PDGF-BB, for 3 days to stimulate inflammation and fibrosis. […]
(§2) Four types of evaluations were conducted on the PCLS: (a) secretion of inflammation and fibrosis biomarkers into the culture medium, (b) histological staining and quantitation of Sirius red as a measure of tissue fibrosis, (c) gene expression of inflammation and fibrosis biomarkers by RT-PCR, and (d) RNA sequencing (RNA-Seq) of the complete transcriptome. […] ELISAs were used to quantify secretion of monocyte chemoattractant protein (MCP-1), interleukin-6 (IL-6), tissue inhibitor of metalloproteinase-1 (TIMP1), hyaluronic acid, fibronectin, and collagen 1α1. For each donor the mean level of biomarker secretion in each treatment group was expressed as a percentage change relative to DMSO vehicle, the percentages averaged for all donors, and finally the mean daily percentage change calculated from all days of evaluation. […]

[2] = system: human precision cut liver slices (PCLS); test: PCLS RNA-Seq, Stimulation Protocol: TGFb/PDGF+CRV vs TGFb/PDGF+Vehicle; type: cell-based; conditions: overlap of all three donors
Description: as §1, §2

CC[C@@H]1NC(=O)[C@H]([C@H](O)[C@H](C)CCCCCCNC(C)=O)N(C)C(=O)[C@H](C(C)C)N(C)C(=O)[C@H](CC(C)C)N(C)C(=O)[C@H](CC(C)C)N(C)C(=O)[C@@H](C)NC(=O)[C@H](C)NC(=O)[C@H](CC(C)C)N(C)C(=O)[C@H](C(C)C)NC(=O)[C@H](CC(C)C)N(C)C(=O)[C@@H](C)N(C)C1=O [CRV431]
number of genes with 300 or less copies in the CRV treated than in the vehicle [1]: 255 genes
number of genes with at least 300 copies more in the CRV treatment than in the Vehicle [1]: 210 genes
number of genes with at least 300 copies less in the CRV treated than in the vehicle [2]: 279 genes
number of genes with at least 300 copies more in the CRV treated samples than in the vehicle [2]: 117 genes

From US12409206B2, “Use of cyclosporine analogues for treating fibrosis” (Hepion Pharmaceuticals, Inc., priority 2020, dated 2025)
